# Data taken from PubChem BioAssay AID540276 (National Center for Advancing Translational Sciences (NCATS), 2011).
# Out of some 300,000 compounds screened, about 5,400 (1.8%) were called active. Inconclusive means that the source gave no clear call. Such entries were picked first, then a sample of the others. The call rests on the fitted dose curve; tested in HEK293 cells. Where the call is inconclusive, the potency comes from a doubtful curve fit.
# Assay: qHTS for inhibitors of binding or entry into cells for Marburg Virus
# Conditions: Marburg virus pseudotyped entry inhibition, cell reporter; series mostly up to 37.8 µM
# Potency means the concentration at half of the fitted maximal effect.
row,Compound,Potency
1,O=C(CSc1nc(-c2ccccc2)nn1C(=O)c1ccccc1)Nc1cccc([N+](=O)[O-])c1,inactive
2,COc1ccccc1CC(=O)NN1C(=O)c2ccccc2C1=O,"inconclusive: 6.31 µM [inhibitor, single point]"
3,Cc1ccc(C(=O)N/C(=C/c2ccco2)C(=O)NC2CCS(=O)(=O)C2)cc1 (stereo unspecified),"inconclusive: 11.2 µM [activator, partial curve]"
4,CC(=O)c1ccc(NC(=O)COC(=O)c2ccc(F)cc2F)cc1,inactive
5,Cc1ccc2oc(-c3cccc(N)c3)nc2c1,active: 12.6 µM
6,COc1cccc(C2=CC(c3cc(OC)ccc3OC)n3nnnc3N2)c1 (stereo unspecified),"inconclusive: 7.94 µM [inhibitor, partial curve]"
7,O=C(Nc1cccnc1)c1cccc(F)c1,"inconclusive: 14.1 µM [activator, partial curve, poor fit]"
8,COCC(=O)NC1(c2nnnn2CCOC(=O)Nc2ccc(Cl)cc2)CCCCC1,inactive
9,Cc1ccc(O)c(-c2cc(-c3ccccc3F)[nH]n2)c1,inactive
10,Cc1cccc(-n2nnc3cnn(C)c3c2=O)c1,"inconclusive: 0.1 µM [activator, full curve, poor fit]"
11,COC(=O)c1c(NC(=O)COC(=O)[C@@H](NS(=O)(=O)c2cccc(Cl)c2)C(C)C)sc2c1CCC2,"inconclusive: 35.5 µM [inhibitor, single point]"
12,Clc1ccc(OCC#CCN2CCCC2)cc1,"inconclusive: 35.5 µM [inhibitor, partial curve, poor fit]"
13,COc1ccc2nc(C)cc(SCC(=O)N/N=C/c3c(OC)ccc4ccccc34)c2c1,"inconclusive: 3.16 µM [inhibitor, single point]"
14,Cc1cccc(Cc2cccc(C)c2O)c1O,"inconclusive: 35.5 µM [inhibitor, single point]"
15,COC(=O)c1ccc(NC(=S)NC2CCCCC2)cc1,inactive
16,COc1ccc(C2=NN(C(=O)CSc3nc(=O)n4cccc(C)c4n3)C(c3ccc(C)cc3)C2)cc1 (stereo unspecified),"inconclusive: 35.5 µM [inhibitor, single point]"
17,CCN1C(=O)C2(C(C#N)=C(N)Oc3n[nH]c(-c4ccc(Cl)cc4)c32)c2ccccc21 (stereo unspecified),"inconclusive: 25.9 µM [inhibitor, single point]"
18,c1ccc(Cn2c3ccccc3c3nnc(SCCN4CCCCC4)nc32)cc1,inactive
19,Cc1nn(Cc2cccc(F)c2)c(C)c1NC(=O)c1ccc(COc2ccccc2Cl)cc1,inactive
20,Cc1c(Cl)cccc1NC(=O)CN1CCN(CCO)CC1,inactive
21,COC(=O)c1ccc(S(=O)(=O)c2ccccc2)c(N)c1,"inconclusive: 3.16 µM [activator, full curve, poor fit]"
22,CC(C)(C)NC(=O)CN(CCc1ccccc1)C(=O)c1csnn1,"inconclusive: 35.5 µM [activator, single point]"
23,CC(C)(C)C1CCc2c(sc(NC(=O)c3cc4ccccc4c(=O)o3)c2C(N)=O)C1 (stereo unspecified),inactive

# Given as tab-separated lines: entries from further up.
row	Compound	Potency
18	c1ccc(Cn2c3ccccc3c3nnc(SCCN4CCCCC4)nc32)cc1	inactive
19	Cc1nn(Cc2cccc(F)c2)c(C)c1NC(=O)c1ccc(COc2ccccc2Cl)cc1	inactive

# The list goes on:

row,Compound,Potency
1,COc1ccccc1NC(=O)CN1CCN(CC(=O)Nc2ccc(Cl)c(C(F)(F)F)c2)CC1,"inconclusive: 35.5 µM [inhibitor, single point]"
2,Cc1ccc(C(CNS(=O)(=O)c2ccc(Cl)cc2)N2CCN(C)CC2)cc1 (stereo unspecified),"inconclusive: 8.91 µM [inhibitor, partial curve, poor fit]"
3,COc1ccc(C2(OC)Oc3cc(OC)ccc3C(=O)C2(O)OC)cc1 (stereo unspecified),"inconclusive: 35.5 µM [inhibitor, single point]"
4,CN1C(=O)c2ccc(C(=O)NC3CCCCC3)cc2C1=O,"inconclusive: 22.4 µM [activator, single point]"
5,O=C(c1ccc(Cl)cc1)N1CCN(CCc2ccccn2)CC1,"inconclusive: 31.6 µM [activator, single point]"
6,COc1ccc(NC(=O)c2ccc(-n3cccn3)c([N+](=O)[O-])c2)cc1,inactive
7,O=C(N/N=C/c1ccc(OC(F)F)cc1)c1cc[n+]([O-])cc1,"inconclusive: 7.08 µM [activator, partial curve, poor fit]"
8,O=C(COC(=O)c1cccc(S(=O)(=O)NCc2ccccc2)c1)c1ccccc1,inactive
9,CCc1ccc(-n2c(SCc3c(C)noc3C)nnc2-c2ccncc2)cc1,"inconclusive: 22.4 µM [inhibitor, single point]"
10,COc1cccc(C(=O)NNS(=O)(=O)c2ccc(C)cc2)c1,"inconclusive: 6.31 µM [inhibitor, single point]"
11,O=C(/C=C/c1ccco1)Nc1ccccc1N1CCOCC1,inactive
12,Cc1nc2ccccc2c(=O)n1/N=C/c1ccccc1F,"inconclusive: 0.562 µM [activator, full curve, poor fit]"
13,Cc1cc(NC(=O)Cn2cnc3sc(C)c(C)c3c2=O)no1,"inconclusive: 0.708 µM [activator, single point]"
14,Cc1ccc(-n2nnnc2SCC(=O)Nc2ccccc2-c2ccccc2)cc1C,"inconclusive: 22.4 µM [inhibitor, single point]"
15,CC(C)c1ccc2[nH]c(O)c(N=NC(=O)c3cccc(S(=O)(=O)Nc4ccc(Cl)cc4)c3)c2c1,inactive
16,Cc1scc(C(=O)N2CCN(c3ccc(Cl)cc3)CC2)c1C,"inconclusive: 11.2 µM [inhibitor, single point]"
17,Cc1cc(C(=O)Nc2ccccc2C(=O)N2CCCCC2)ccc1[N+](=O)[O-],"inconclusive: 6.31 µM [inhibitor, full curve]"
18,O=C1Oc2ccccc2C(=O)/C1=C\N1CCN(c2ccccc2)CC1,inactive
19,NC(=O)C1CCN(C(=O)Cc2ccc(-c3ccccc3)cc2)CC1,inactive
20,CC(=O)N(C)c1ccc(OCC(O)Cn2c(C)nc3ccccc32)cc1 (stereo unspecified),"inconclusive: 35.5 µM [inhibitor, single point]"
21,COCCCNC(=O)COc1ccc2oc3c(c2c1)CCCC3,inactive
22,O=C(NCC1OCCc2ccccc21)c1ccc(NC(=O)c2ccc(Cl)cc2Cl)cc1 (stereo unspecified),inactive
23,O=C1CCCC2=C1C(c1ccncc1)c1c(nc(SCc3ccccc3Cl)[nH]c1=O)N2 (stereo unspecified),active: 10 µM
